Among all 310,000 compounds or so, about 17,000 (5.5%) were called active. The shares of active, inactive and inconclusive entries below differ from those in the screen. Calls follow the shape of the dose curve; as a rule, active = well fitted inhibition curve with a large enough effect; inconclusive = small, poorly fitted or top-dose-only effect, or effect the other way; inactive = no such curve, though single readings can be large or run the other way. Potencies of inconclusive entries are doubtful fits and often do not repeat.
target: Nuclear receptor ROR-gamma (Mus musculus) (UniProt P51450); test: qHTS for inhibitors of ROR gamma transcriptional activity; settings: Drosophila S2 Gal4-RORgamma UAS-luciferase reporter, 20 h; activity change, negative = inhibition: at 53.6 µM (top of the series); also: nearly all actives have a fitted effect of over 60% in size
How it was run: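 Stably transfected Drosophila Schneider cells are the test system, with ROR gamma fused to Gal4 and luciferase under UAS control; luminescence is read after 20 hr of 700 uM copper sulfate induction at ambient temperature.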
% is scaled to controls: 0 for no effect and ±100 for the full control effect; potency is read from the fitted curve at half-maximal effect.

Protein sequences, listed by entry. Tags and fused reporters are not part of them. Lines headed by an entry give the natural chain unless they say otherwise; changes in a name come on top.
UniProt P51450: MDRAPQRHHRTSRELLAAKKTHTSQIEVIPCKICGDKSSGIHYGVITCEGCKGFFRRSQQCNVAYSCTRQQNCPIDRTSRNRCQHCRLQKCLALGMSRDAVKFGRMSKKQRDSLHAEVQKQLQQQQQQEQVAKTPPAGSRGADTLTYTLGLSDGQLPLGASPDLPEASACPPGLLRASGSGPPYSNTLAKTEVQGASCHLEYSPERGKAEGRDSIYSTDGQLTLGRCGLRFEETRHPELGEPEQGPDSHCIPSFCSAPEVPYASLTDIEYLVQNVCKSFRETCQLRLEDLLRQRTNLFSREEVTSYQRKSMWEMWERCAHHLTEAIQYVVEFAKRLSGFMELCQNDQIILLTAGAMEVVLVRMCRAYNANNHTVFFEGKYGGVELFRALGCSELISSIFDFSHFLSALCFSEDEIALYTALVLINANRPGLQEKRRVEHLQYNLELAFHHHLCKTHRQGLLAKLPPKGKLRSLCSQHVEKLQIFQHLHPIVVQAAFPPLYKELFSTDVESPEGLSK

| Compound | activity change, negative = inhibition | Potency |
| --- | --- | --- |
| Cc1cc(C)c(S(=O)(=O)Nc2ccc[nH]c2=O)c(C)c1 | inactive: -24.5% [at 0.365 µM] | – |
| COc1ccc(-n2c(-c3cccc(C)c3[N+](=O)[O-])n[nH]c2=S)cc1 | – | active: 7.94 µM |
| Cc1ccc(OCC(=O)NC(=S)Nc2ccc(Br)c(C)n2)cc1 | – | active: 2.51 µM |
| Cc1c(C(=O)Nc2ccc(-c3nnc4n3CCCCC4)cc2)oc2c1ccc1ccccc12 | – | inconclusive: 31.6 µM [inhibitor, single point] |
| S=c1[nH]nc(-c2ccccc2)n1/N=C/c1ccc(Cl)cc1 | – | active: 1.12 µM |
| COc1ccc(OC)c(/C=C/C(=O)c2ccc(Cl)cc2)c1 | – | inconclusive: 35.5 µM [inhibitor, single point] |
| Clc1ccc(-c2ccc(CNCc3ccccn3)o2)cc1 | – | inconclusive: 35.5 µM [inhibitor, single point] |
| O=C(Nc1nnc(-c2ccccc2)s1)c1ccccc1F | – | active: 12.6 µM |
| Cc1nc(SCC(=O)c2ccc(Cl)cc2)c([N+](=O)[O-])[nH]1 | – | inconclusive: 35.5 µM [inhibitor, single point] |
| CCC(=O)Nc1cccc(C(=O)/C=C/c2ccc(F)cc2)c1 | – | inconclusive: 35.5 µM [inhibitor, single point] |
| CCC1CC=CC2C1C(=O)N(Cc1ccccc1)C2c1ccoc1 (stereo unspecified) | – | inconclusive: 15.8 µM [inhibitor, single point] |
| O=[N+]([O-])c1ccc2nc(/C=C/c3ccc(Cl)cc3)[nH]c2c1 | – | inconclusive: 35.5 µM [inhibitor, single point] |
| CN(NC(=O)c1ccco1)c1nc2ccccc2nc1C(F)(F)F | – | inconclusive: 7.08 µM [activator, full curve, poor fit] |
| Cc1ccc(S(=O)(=O)N2CCN(CC(=O)N/N=C/C=C/c3ccccc3)CC2)cc1 | – | inconclusive: 25.1 µM [inhibitor, single point] |
| Cc1ccc(OCC(=O)Nc2ccc(NC(=O)c3ccccc3)cc2)cc1C | inactive: -0.723% | – |
| CC(=O)C1=C(C)NC(SCC(=O)c2ccc(C)cc2)=C(C#N)C1c1ccco1 (stereo unspecified) | – | inconclusive: 12.6 µM [inhibitor, partial curve, poor fit] |
| Cc1sc(NC(=O)CN2CCCC2)nc1-c1ccc2c(c1)CCN2C(=O)c1cccc(F)c1 | – | active: 11.2 µM |
| O=[N+]([O-])c1ccc(CNc2cccc(F)c2)s1 | – | inconclusive: 35.5 µM [activator, single point] |
| COc1ccc(C2CC(c3ccccc3)=NN2C(=O)COC(=O)C2CC2)cc1 (stereo unspecified) | inactive: 6.33% | – |
| CCCCCCCCCCOC(=O)NC1CCS(=O)(=O)C1 (stereo unspecified) | – | inconclusive: 35.5 µM [activator, single point] |
| S=c1[nH]c2ccccc2n1Cc1ccccc1 | – | inconclusive: 20 µM [inhibitor, partial curve, poor fit] |
| CCCCn1c(=O)[nH]c(=O)c2c1nc(-c1ccc(OC)c(Br)c1)n2CC(C)C | – | inconclusive: 22.4 µM [activator, partial curve, poor fit] |
| CC1(C)OC(=O)C(C(c2ccccc2)C(C#N)C(N)=O)=C(O)O1 (stereo unspecified) | inactive: -12.8% | – |

Quoted at random: 3 records from the list

| Compound | activity change, negative = inhibition | Potency |
| --- | --- | --- |
| CCC(=O)Nc1cccc(C(=O)/C=C/c2ccc(F)cc2)c1 | – | inconclusive: 35.5 µM [inhibitor, single point] |
| S=c1[nH]nc(-c2ccccc2)n1/N=C/c1ccc(Cl)cc1 | – | active: 1.12 µM |
| O=[N+]([O-])c1ccc2nc(/C=C/c3ccc(Cl)cc3)[nH]c2c1 | – | inconclusive: 35.5 µM [inhibitor, single point] |

Next compounds follow.

| Compound | activity change, negative = inhibition | Potency |
| --- | --- | --- |
| COc1ccc(N(Cc2cc3cc(OC)ccc3[nH]c2=O)C(=O)c2cccnc2)cc1 | – | inconclusive: 2.24 µM [inhibitor, partial curve] |
| CC(=O)c1cc(C(=O)c2ccccc2)sc1Nc1ccccc1 | – | inconclusive: 10 µM [activator, partial curve] |
| Cc1sc2nc(SCC(=O)NCc3ccco3)n(CCc3ccccc3)c(=O)c2c1C | – | active: 12.6 µM |
| COc1cc(CC(=O)NCC2CCCCC2)cc(OC)c1OC | inactive: 16.1% | – |
| Cc1ccc(NC(=O)c2cc(-c3cc(C)c(C)cc3O)n[nH]2)cc1C | inactive: -29.6% | – |
| CCOC(=O)c1[nH]c2ccc(OC)cc2c1NC(=S)N1CCN(c2cccc(C)c2C)CC1 | – | active: 4.47 µM |
| CCOc1ccc(Br)cc1S(=O)(=O)Nc1ccc(NC(=O)c2ccccc2F)cc1 | – | inconclusive: 11.2 µM [activator, single point] |
| Cc1ccccc1-n1cc(C(=O)c2cc(Cl)ccc2O)cc(C#N)c1=O | – | inconclusive: 11.2 µM [activator, partial curve] |
| C=Cc1ccc(Cn2c(=O)n(C)c(=O)c3sccc32)cc1 | – | inconclusive: 31.6 µM [activator, single point] |
| O=C(Nc1nnc(C2=COCCO2)o1)c1cccc(C(F)(F)F)c1 | – | active: 0.562 µM |
| CC(=O)N(c1ccc(C)cc1)S(=O)(=O)c1ccc(Cl)cc1 | inactive: 15.9% | – |
| Cc1cccc(-c2nnc3n2N=C(c2ccccc2Br)CS3)c1 | – | inconclusive: 15.8 µM [inhibitor, single point] |
| CCc1ccc2c(c1)[C@]1(C(=O)N2)[C@@H]2C(=O)N(Cc3ccccc3)C(=O)[C@@H]2[C@@H]2CCCN21 | – | inconclusive: 8.91 µM [activator, partial curve] |
| CC1CCN(C(=O)Cn2cnc3c2c(=O)n(C)c(=O)n3C)c2ccccc2S1 (stereo unspecified) | inactive: -14.1% | – |
| C=C(C)CNC(=S)N/N=C/c1ccccc1OCC(=O)O | – | active: 10 µM |
| Cn1c(=O)c2c(nc(CN3CCC(Cc4ccccc4)CC3)n2CCN2CCOCC2)n(C)c1=O | inactive: -1.21% | – |
| Cc1ccc(CN2CCN(c3ncccn3)CC2)c(C)c1 | inactive: 18.7% | – |
| COc1cc(/C=C2\SC(=S)N(NC(=O)c3ccc(O)cc3)C2=O)ccc1O | – | active: 11.2 µM |
| CCOC(=O)c1cnc(-n2nc(C)cc2C)[nH]c1=O | – | active: 6.31 µM |
| Cc1c(C)c2ccc(OC(C)C(=O)NCCCn3ccnc3)c(C)c2oc1=O (stereo unspecified) | – | inconclusive: 35.5 µM [activator, single point] |
| Cc1ccc(C(C(=O)NCc2ccccc2)N(C(=O)c2csnn2)C2CC2)cc1 (stereo unspecified) | – | inconclusive: 5.62 µM [inhibitor, single point] |
| CC(=O)c1cccc(N2C(=NC(=O)C(C)C)SC3CS(=O)(=O)CC32)c1 (stereo unspecified) | – | inconclusive: 35.5 µM [inhibitor, single point] |
| O=C(NCCc1ccccc1F)C1CC(=O)N(c2ccccc2)C1 (stereo unspecified) | inactive: 10.4% | – |
